Results are given as percent effect.
The controls that fix the scale are not given in the record; negative values are as filed.
The compounds are a random part of those screened.
A dash means the value is not listed here; it may have been measured.

Protein sequences, listed by entry. Tags and fused reporters are not part of them.
UniProt P9WPC5, whole entry: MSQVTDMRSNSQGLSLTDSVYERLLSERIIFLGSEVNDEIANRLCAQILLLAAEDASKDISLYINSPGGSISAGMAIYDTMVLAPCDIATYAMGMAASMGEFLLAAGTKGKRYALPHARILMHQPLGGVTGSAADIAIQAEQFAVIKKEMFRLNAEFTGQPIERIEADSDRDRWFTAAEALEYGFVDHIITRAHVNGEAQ
UniProt P9WPC3, whole entry partner: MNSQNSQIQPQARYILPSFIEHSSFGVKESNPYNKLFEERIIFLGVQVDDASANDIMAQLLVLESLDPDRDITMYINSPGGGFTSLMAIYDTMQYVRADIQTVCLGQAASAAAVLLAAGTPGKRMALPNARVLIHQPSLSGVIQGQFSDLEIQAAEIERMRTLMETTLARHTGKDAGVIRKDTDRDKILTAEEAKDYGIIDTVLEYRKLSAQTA

Toxoplasma: 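Assay of Toxoplasma gondii numbers, read through their beta-galactosidase reporter with a colour substrate. Compounds at 10 µM. Higher reads as fewer parasites (inferred from which compounds were picked for retests). About 67,000 compounds were tested under these conditions; 0.38% (about 260) showed 50% or more at least once.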
ClpP1P2: 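Protease assay of ClpP1P2, read by the AMC dye that it sets free. Target: ClpP1P2, Mycobacterium tuberculosis (UniProt P9WPC5 and UniProt P9WPC3). Tested at 50 µM. Higher reads as stronger inhibition, judged from the few compounds that gave an IC50. Most other retested compounds had strongly negative values. About 69,000 compounds were tested under these conditions; 0.015% (about 10) showed 50% or more at least once.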
Leishmania in macrophages: 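Cell assay of Leishmania donovani living inside macrophages; the read-out is not stated. Compounds at 30 µM. The record gives no direction; compounds that gave an IC50 in retests scored well above the rest, so higher reads as stronger inhibition. Size under these conditions: about 69,000 compounds, about 1,000 of them at 50% or above in at least one test.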
T. brucei: 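Whole-parasite assay of Trypanosoma brucei over 72 hours; the read-out is not stated. Compounds at 30 µM. The record gives no direction; compounds that gave an IC50 in retests scored well above the rest, so higher reads as stronger inhibition. Values scatter widely below zero; nearly all retest evidence comes from the higher of the two concentrations used. About 64,000 compounds were tested under these conditions; 1.5% (about 940) showed 50% or more at least once.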

structure	Toxoplasma	ClpP1P2	Leishmania in macrophages	T. brucei
Cc1ccc(CN2CCCn3c(nc(CN4CCCC4)cc3=O)C2)s1.O=C(O)C(F)(F)F.O=C(O)C(F)(F)F	-11.64	-	25.48	-3.944
Cc1cc(CN2CCN(C(c3ccccc3)c3ccccc3)CC2)no1	-	4.74	46.91	-37.14
Cc1ccc(C(=O)N2C[C@@H](NS(C)(=O)=O)[C@H](C(C)C)C2)cc1O	3.946	5.027	13.64	-24.19
Cn1ccnc1Sc1ccc(N)cn1	-	0.2679	-	-
Cc1cccc(CN2CCc3ncnc(N4CCN(C)CC4)c3CC2)n1.O=C(O)C(F)(F)F.O=C(O)C(F)(F)F	-16	-	55.42	-18.43
OC1(CN2CCCC2)CCCN(Cc2cnc(-c3ccco3)nc2)C1 (configuration not stated)	-20.09	-6.635	29.21	-31.36
Cc1ccccc1CSCCn1nc2ccccn2c1=O	-6.202	15.09	34.16	6.629
Cn1cc(C2(C)CN(C(=O)COc3ccccc3F)CCO2)cn1 (configuration not stated)	3.308	-4.83	26.69	-11.54
CC(C)NC(=O)Cn1cc(-c2ccccc2)cn1	-3.993	1.034	16.59	15.84
CNC(=O)NC(=O)C(C)N1CCC(c2c[nH]c3ccc(OC)cc23)CC1 (configuration not stated)	-	2.025	7.273	-23.06
O=C(O)C(F)(F)F.O=C(O)C(F)(F)F.[H][C@@]12CCN(Cc3ccsc3)[C@]1([H])CC[C@H](C(=O)N1CCN(C)CC1)O2	1.183	-	8.533	-3.511
O=C(O)C(F)(F)F.[H][C@@]12CCN(c3cccnc3)C[C@]1([H])CN(C(=O)c1cnccn1)C2	-3.14	-	10.25	-16.53
Cc1cc(C(=O)N2C[C@@H]3COC[C@]3(COCc3cccnc3)C2)no1	-	-8.647	-	-
O=C(O)C(F)(F)F.O=C(O)C(F)(F)F.O=C(O)C(F)(F)F.O=C(O)C(F)(F)F.[H][C@@]12CN(Cc3ccncc3)C[C@]1([H])[C@H](OC)CCN2Cc1cccc(C)n1	-19.01	-	36.41	-16.07
CCc1nc(CN(C)C2CCN(CCOc3ccccc3)C2)no1 (configuration not stated)	7.913	-33.46	35.99	-
[H][C@]12CC[C@]([H])(CN(C3Cc4ccccc4C3)C1)N(C(=O)CCO)C2	8.29	-	9.636	-10.4
CS(=O)(=O)Nc1ccc(CNC(=O)CN2CCc3ccccc32)cc1	0.3793	-0.9941	3.869	-74.97
Cl.O=C(C1CC=CC1)N1CCC2(CC1)CNCCO2	3.138	-	15.45	-28.84
Cc1ccc(CNC(C)(C)c2noc(C(C)(C)C)n2)o1	-2.971	-1.357	7.662	-2.67
CN(CCc1ccccn1)C(=O)c1cnn(-c2ccccc2F)c1N	-8.094	-1.882	-4.934	-4.758
CC(=O)N1CCC(c2nc(C)cc(-c3ccccc3C(=O)O)n2)CC1	-13.28	4.031	-3.97	4.933
CC(=O)Nc1nc(C(=O)NCc2ccc(N3CCCCC3)cc2)cs1	19.2	-2.439	40.68	-10.3
CC(C)c1n[nH]c(C2CN(C(=O)c3cnccn3)CCO2)n1 (configuration not stated)	-12.46	10.1	-39.54	-13.82
Cc1ccc(C(=O)NCc2ccc(N(C)C)cc2)cn1	-13.52	9.983	1.485	-31.3
O=C(O)C(F)(F)F.[H][C@]12CCN(c3ncccn3)CC[C@@]1([H])S(=O)(=O)N(CC(C)C)C2	16.01	-	24.09	7.131
O=C(O)C(F)(F)F.O=C(O)C(F)(F)F.[H][C@@]12COC[C@@H](C(=O)NCc3ccccn3)[C@]1([H])CN(C1CCOCC1)C2	0.4841	-	-15.51	-
CCc1nccc(CN2CCCC(CNC(=O)c3occc3C)C2)n1 (configuration not stated)	-17.03	1.682	-7.597	-19.98
CCn1cc(CN2CCN(C)C3(CCC(=O)N(CC4CC4)CC3)C2)cn1 (configuration not stated)	6.12	-18.5	13.25	-43.19
CC1c2ncc(CNC(=O)C3CC3)n2CCN1Cc1cccnc1.O=C(O)C(F)(F)F.O=C(O)C(F)(F)F (configuration not stated)	11.9	-	15.77	-4.95
Cc1cc(CN(C)C(=O)C(c2ccccc2)N2CCSCC2)no1 (configuration not stated)	18.49	11.17	23.98	23.65
CC(CNC(=O)NCc1ccoc1)N1CCc2sccc2C1 (configuration not stated)	9.379	7.273	26.8	-41.09
NC(=O)C1CCCN(C(=O)c2cnc3c(cnn3C3CCCC3)c2)C1 (configuration not stated)	-	1.175	17.23	13.82
O=C(c1ccnnc1)N1CCC2(CC1)CC(N1CCOCC1)C2	3.696	21.47	16.87	-22.75
COc1ccc(CN2CCC3(CC(=O)N(c4cncnc4)C3)C2)cc1.O=C(O)C(F)(F)F (configuration not stated)	-2.528	-	-32.71	-
Cc1noc(C)c1C(=O)NCc1ccc(N2CCC(C)CC2)nc1	-3.774	-13.38	43.48	4.367
CC1CCCN(Cc2c(C3CC3)n(CC(=O)N(C)C)c3ncccc23)C1 (configuration not stated)	-	24.18	-	-
COc1cc(N2CCC3(CC2)CC(N2CCN(C)CC2)CO3)ncn1.O=C(O)C(F)(F)F.O=C(O)C(F)(F)F (configuration not stated)	-4.72	-	0.2081	-21.14
CCOc1ccnc(N2CCN(C(=O)c3c(CC)noc3C)CC2)n1	0.1136	-18.58	5.53	-
Cc1cc(NC(=O)Cn2ccccc2=O)n(C)n1	-4.202	11.07	16.9	-28.25
Cc1ccsc1C(=O)N1CCC(c2nccn2Cc2ccncc2)CC1	-0.4055	-6.736	11.82	-27.31
CCCN1CCCN(C(=O)Nc2ccc3c(c2)OCO3)CC1	15.58	-1.447	30.56	-8.691
CCS(=O)(=O)N1CC[C@H]2CO[C@H](CN(C)C)[C@H]2C1	-	7.668	-	-
CCC(NC(=O)NCC(=O)NC(C)C)c1cc(F)ccc1F (configuration not stated)	-5.319	-10.68	21.37	-8.852
O=C(NCCn1ccnc1-c1cc2n(n1)CCNC2)c1ccncc1	-19.06	-3.963	8.345	-42.59
Cc1ccc(N2CCCC(NCc3ccc4c(c3)OCCO4)C2)nn1 (configuration not stated)	7.046	-21.57	-12.27	-17.27
COc1cccc2ccc(CN3CCN(c4ncccn4)CC3)nc12	-4.182	-11.08	4.105	-16
CC[C@@H]1N(CC2CC2)CCC[C@]12CCC(=O)N2	-	-6.512	-	-
CCOCC1CN(S(=O)(=O)c2ccccc2)Cc2nccn2C1 (configuration not stated)	-27.13	14.96	21.18	-23.74
O=C(CC1COCCN1)N1CCC2(CCc3ccccc32)CC1 (configuration not stated)	-15.78	-3.431	3.698	-44.2
CN(Cc1nc2ccccc2c(=O)[nH]1)C1CC(=O)N(C2CC2)C1=O (configuration not stated)	-18.09	-6.787	15.19	-5.027
CCN(Cc1cnn(C)c1)C(=O)c1cc2ccccc2c(=O)[nH]1	-13.21	-1.776	-0.6833	-12.68
O=C(c1cscn1)N1CCC2(COc3ncccc3S(=O)(=O)N2)C1 (configuration not stated)	8.529	4.086	22.09	-
O=c1[nH]c(CCN2CCCC2Cn2cncn2)nc2ccccc12 (configuration not stated)	-1.636	-14.06	-19.78	5.226
CN(CC(=O)NC1CC1)C(=O)c1csc(Br)c1	-2.193	1.843	6.804	-17.62
O=S1(=O)CCCN(Cc2ccccc2OCC(F)(F)F)CC1	-13.55	-2.067	-1.536	-13.29
Cc1ccc(C(=O)N2CC[C@H](N3CCOCC3)[C@H](CCCO)C2)cc1O	-5.577	-5.802	-1.899	-105.1
Cn1c(CN2CCOC[C@H]2c2nc(C(C)(C)C)co2)nc2ccccc21	17.18	-6.971	36.63	2.965

For reference, 6 entries once more:

| structure | Toxoplasma | ClpP1P2 | Leishmania in macrophages | T. brucei |
|---|---|---|---|---|
| `Cc1cc(CN(C)C(=O)C(c2ccccc2)N2CCSCC2)no1` (configuration not stated) | 18.49 | 11.17 | 23.98 | 23.65 |
| `Cc1ccc(C(=O)N2CC[C@H](N3CCOCC3)[C@H](CCCO)C2)cc1O` | -5.577 | -5.802 | -1.899 | -105.1 |
| `Cn1c(CN2CCOC[C@H]2c2nc(C(C)(C)C)co2)nc2ccccc21` | 17.18 | -6.971 | 36.63 | 2.965 |
| `O=C(CC1COCCN1)N1CCC2(CCc3ccccc32)CC1` (configuration not stated) | -15.78 | -3.431 | 3.698 | -44.2 |
| `CCOc1ccnc(N2CCN(C(=O)c3c(CC)noc3C)CC2)n1` | 0.1136 | -18.58 | 5.53 | - |
| `O=C(O)C(F)(F)F.[H][C@]12CCN(c3ncccn3)CC[C@@]1([H])S(=O)(=O)N(CC(C)C)C2` | 16.01 | - | 24.09 | 7.131 |

Data taken from ChEMBL document CHEMBL3988442, “University of Dundee, Small-Polar-MMV Screening Library” (2021).